# In the supplement of paper PMC7024190:
# Where a name gives a salt, the structure may show the parent alone. The list shows a part of the results. This data set is noisy: repeats of one test often differ as much as different tests do.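 Human embryonic kidney cells were transiently transfected with a plasmid bearing a Renilla luciferase gene under the HSV-TK promoter. This first-round screen tests roughly ten thousand compounds for ones that increase reporter output.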
# Test system: HEK 293FT
# Test: log relative Renilla luciferase luminescence (reporter expression vs reference, reference not stated) (log (base not stated)); higher = higher recombinant reporter expression
# Details: 10 µM; time after transfection 48 h
row,Compound,log
1,CC(=O)NCCCS(=O)(=O)O [Acamprosate calcium],0.0626
2,CCOC(=O)O[C@]1(C(=O)COC(=O)CC)CC[C@H]2[C@@H]3CCC4=CC(=O)C=C[C@]4(C)[C@H]3[C@@H](O)C[C@@]21C [Prednicarbate],0.03
3,C=C1c2c(Cl)ccc(O)c2C(=O)C2=C(O)[C@]3(O)C(=O)C(C(N)=O)=C(O)[C@@H](N(C)C)[C@@H]3[C@@H](O)[C@H]12.O=C(O)c1cc(S(=O)(=O)O)ccc1O [Meclocycline sulfosalicylate],0.0324
4,CC(C)(C)NCC(O)COc1cccc2c1CCC(=O)N2 (centres undefined) [Carteolol hydrochloride],-0.0656
5,Nc1nc2ccc(OC(F)(F)F)cc2s1 [Riluzole hydrochloride],-0.0437
6,COc1ccc2c(c1)c(CC(=O)O)c(C)n2C(=O)c1ccc(Cl)cc1 [Indomethacin],0.0344
7,C(=C\c1ccccc1)/CN1CCN(C(c2ccccc2)c2ccccc2)CC1 [Cinnarizine],-0.0681
8,O=C(C1CCCCC1)N1CC(=O)N2CCc3ccccc3C2C1 (centres undefined) [Praziquantel],0.0303
9,CC(=O)c1ccc2c(c1)N(CCCN(C)C)c1ccccc1S2 [Acetopromazine maleate salt],0.00301
10,CN(C)CCOC(C)(c1ccccc1)c1ccccn1 (centres undefined) [Doxylamine succinate],0.0221
11,CC(C)(C#N)c1cc(Cn2cncn2)cc(C(C)(C)C#N)c1 [Anastrozole],-0.203
12,Oc1c(I)cc(Cl)c2cccnc12 [Clioquinol],0.0751
13,Nc1ccn([C@H]2CC[C@@H](CO)O2)c(=O)n1 [Zalcitabine],0.0404
14,CN(C(=O)C(Cl)Cl)c1ccc(OC(=O)c2ccco2)cc1 [Diloxanide furoate],0.00934
15,CN(C)CCN1C(=O)c2ccccc2N(C)c2ccccc21 [Dibenzepine hydrochloride],-0.0656
16,COc1ccc(OC)c(C(O)CNC(=O)CN)c1 (centres undefined) [Midodrine hydrochloride],0.17
17,CN1CCN(CCCN2c3ccccc3Sc3ccc(C(F)(F)F)cc32)CC1 [Trifluoperazine dihydrochloride],0.0283
18,CC[C@H](C)[C@H](N)C1=N[C@H](C(=O)N[C@@H](CC(C)C)C(=O)N[C@H](CCC(=O)O)C(=O)N[C@H](C(=O)N[C@H]2CCCCNC(=O)[C@H](CC(N)=O)NC(=O)[C@@H](CC(=O)O)NC(=O)[C@H](Cc3cnc[nH]3)NC(=O)[C@@H](Cc3ccccc3)NC(=O)[C@H]([C@@H](C)CC)NC(=O)[C@@H](CCCN)NC2=O)[C@@H](C)CC)CS1 [Bacitracin],0.156
19,Oc1c(Cl)cc(Cl)c(Cl)c1Cc1c(O)c(Cl)cc(Cl)c1Cl [Hexachlorophene],-1.3
20,Cc1c(N(C)C)c(=O)n(-c2ccccc2)n1C [Amidopyrine],-0.0492
21,COc1ccc(/C=C/C(=O)Nc2ccccc2C(=O)O)cc1OC [Tranilast],-0.0739
22,CCOC(=O)C1=C(COCCN)NC(C)=C(C(=O)OC)C1c1ccccc1Cl (centres undefined) [Amlodipine],-0.00821
23,CN1[C@@H]2CC[C@H]1C[C@@H](OC(=O)c1c[nH]c3ccccc13)C2 [Tropisetron HCl],0.0581

row,Compound,log
1,Cc1cccc(C)c1OCC(C)N (centres undefined) [Mexiletine hydrochloride],-0.588
2,COc1ccccc1OCC(O)CO (centres undefined) [Guaifenesin],-0.0762
3,NC[C@@H]1O[C@H](O[C@H]2[C@@H](O)[C@H](O[C@@H]3[C@@H](O)[C@H](N)C[C@H](N)[C@H]3O[C@H]3O[C@H](CO)[C@@H](O)[C@H](O)[C@H]3N)O[C@@H]2CO)[C@H](N)[C@@H](O)[C@@H]1O [Paromomycin sulfate],-0.0369
4,CC(=O)[C@H]1CC[C@H]2[C@@H]3C=CC4=CC(=O)CC[C@@]4(C)[C@@H]3CC[C@]12C [Dydrogesterone],-0.777
5,C[C@H]1O[C@@H](O[C@H]2[C@@H](O)C[C@H](O[C@H]3[C@@H](O)C[C@H](O[C@H]4CC[C@@]5(C)[C@H](CC[C@@H]6[C@@H]5C[C@@H](O)[C@]5(C)[C@@H](C7=CC(=O)OC7)CC[C@]65O)C4)O[C@@H]3C)O[C@@H]2C)C[C@H](O)[C@@H]1O [Digoxin],-1.02
6,COc1cc([S+](C)[O-])ccc1-c1nc2cccnc2[nH]1 (centres undefined) [Sulmazole],-1.34
7,CC(C(=O)O)c1ccc(-c2ccccc2)c(F)c1 (centres undefined) [Flurbiprofen],0.131
8,O=C(OCC(O)CO)c1ccccc1Nc1ccnc2cc(Cl)ccc12 (centres undefined) [Glafenine hydrochloride],-0.192
9,CN(C)C(=O)C(CCN1CCC(O)(c2ccc(Cl)cc2)CC1)(c1ccccc1)c1ccccc1 [Loperamide hydrochloride],0.102
10,Cc1cccc(C)c1NC(=O)C(C)N (centres undefined) [Tocainide hydrochloride],0.0384
11,CC(C(=O)O)c1ccc2c(c1)[nH]c1ccc(Cl)cc12 (centres undefined) [Carprofen],0.109
12,CCCCc1cc2ccccc2c(OCCN(C)C)n1 [Dimethisoquin hydrochloride],-0.18
13,Cc1c(-c2ccccc2)oc2c(C(=O)OCCN3CCCCC3)cccc2c1=O [Flavoxate hydrochloride],0.0896
14,CN[C@@H]1[C@@H](O[C@H]2O[C@H](CO)[C@@H](N)[C@H](O)[C@H]2O)OC2C[C@@H](N)[C@@H](O[C@H]3[C@H](O)[C@@H](O)[C@H](N)C[C@@H]3N)OC2[C@@H]1O (some centres undefined) [Apramycin],-0.0605
15,C#Cc1cccc(Nc2ncnc3cc(OCCOC)c(OCCOC)cc23)c1 [Erlotinib],-0.169
16,N[C@@H](C(=O)N[C@@H]1C(=O)N2C(C(=O)O)=C(Cl)CC[C@H]12)c1ccccc1 [Loracarbef],-0.211
17,Cc1onc(-c2ccccc2Cl)c1C(=O)N[C@@H]1C(=O)N2[C@@H]1SC(C)(C)[C@@H]2C(=O)O [Cloxacillin sodium salt],0.141
18,N#Cc1ccc(C2CCCc3cncn32)cc1 (centres undefined) [Fadrozole hydrochloride],0.0612
19,CN[C@@H]1[C@H](O)[C@H](NC)[C@H]2O[C@@]3(O)C(=O)C[C@@H](C)O[C@H]3O[C@@H]2[C@H]1O [Spectinomycin dihydrochloride],-0.145
20,NS(=O)(=O)c1cc2c(cc1Cl)NC(C(Cl)Cl)NS2(=O)=O (centres undefined) [Trichlormethiazide],-0.285
21,COc1ccccc1Oc1c(NS(=O)(=O)c2ccc(C(C)(C)C)cc2)nc(-c2ncccn2)nc1OCCO [Bosentan],-0.283
22,Nc1ccccc1S(N)(=O)=O [2-Aminobenzenesulfonamide],0.159
23,CC(C)[N+](C)(CCOC(=O)C1c2ccccc2Oc2ccccc21)C(C)C [Propantheline bromide],-0.156

# Sorted by length of the SMILES (rising): some entries from above.
row,Compound,log
18,N#Cc1ccc(C2CCCc3cncn32)cc1 (centres undefined) [Fadrozole hydrochloride],0.0612
7,C(=C\c1ccccc1)/CN1CCN(C(c2ccccc2)c2ccccc2)CC1 [Cinnarizine],-0.0681
21,COc1ccccc1Oc1c(NS(=O)(=O)c2ccc(C(C)(C)C)cc2)nc(-c2ncccn2)nc1OCCO [Bosentan],-0.283
19,CN[C@@H]1[C@H](O)[C@H](NC)[C@H]2O[C@@]3(O)C(=O)C[C@@H](C)O[C@H]3O[C@@H]2[C@H]1O [Spectinomycin dihydrochloride],-0.145

# Continuation:

row,Compound,log
1,CN(C)CCC=C1c2ccccc2COc2ccccc21 [Doxepin hydrochloride],0.0949
2,O=C(N[C@H](CO)[C@H](O)c1ccc([N+](=O)[O-])cc1)C(Cl)Cl [Chloramphenicol],-0.296
3,CCC[C@@H]1C[C@@H](C(=O)N[C@@H]([C@H]2O[C@H](SC)[C@H](O)[C@@H](O)[C@H]2O)[C@H](C)Cl)N(C)C1 [Clindamycin hydrochloride],0.0669
4,Cc1ccc2c(c1)c1c3n2CCNC3CCC1 (centres undefined) [Pirlindole mesylate],-0.1
5,C=C1/C(=C\C=C2/CCC[C@]3(C)[C@@H]([C@H](C)CCCC(C)C)CC[C@@H]23)C[C@@H](O)C[C@@H]1O [Alfacalcidol],-0.395
6,CN(C)C/C=C(/c1ccc(Br)cc1)c1cccnc1 [Zimelidine dihydrochloride monohydrate],-0.506
7,CC(C)(CO)C(O)C(=O)NCCCO (centres undefined) [Panthenol (D)],0.00284
8,CCOc1ccc2ccccc2c1C(=O)N[C@@H]1C(=O)N2[C@@H]1SC(C)(C)[C@@H]2C(=O)O [Nafcillin sodium salt monohydrate],-0.116
9,CCN(CC)CCNC(=O)c1cc(Cl)c(N)cc1OC [Metoclopramide monohydrochloride],0.093
10,Cn1cnc2c1c(=O)[nH]c(=O)n2C [Theobromine],-0.0428
11,C1CCC(C(CC2CCCCN2)C2CCCCC2)CC1 (centres undefined) [Perhexiline maleate],-0.114
12,CC(=O)[C@@]1(O)CC[C@H]2[C@@H]3C[C@H](C)C4=CC(=O)C=C[C@]4(C)[C@@]3(F)[C@@H](O)C[C@@]21C [Fluorometholone],0.294
13,CCc1nc(N)nc(N)c1-c1ccc(Cl)cc1 [Pyrimethamine],0.0949
14,CC(C)NCC(O)COc1ccc(CCOCC2CC2)cc1 (centres undefined) [Betaxolol hydrochloride],-0.0382
15,COc1cc(C(=O)NCc2ccc(OCCN(C)C)cc2)cc(OC)c1OC [Trimethobenzamide hydrochloride],0.0824
16,COc1ccc(-c2cc(=S)ss2)cc1 [Anethole-trithione],-0.103
17,O=C(O)c1cn(C2CC2)c2cc(N3CCNCC3)c(F)cc2c1=O [Ciprofloxacin hydrochloride hydrate],-0.0171
18,Cc1ccc(NC(=O)c2ccc(CN3CCN(C)CC3)cc2)cc1Nc1nccc(-c2cccnc2)n1 [Imatinib],0.0324
19,CCCC1C(=O)N2C(N(C)C)=Nc3ccc(C)cc3N2C1=O (centres undefined) [Azapropazone],-0.144
20,Clc1ccc(C(Cn2ccnc2)OCc2ccsc2Cl)c(Cl)c1 (centres undefined) [Tioconazole],-0.13
21,c1cnc(N2CCN(Cc3ccc4c(c3)OCO4)CC2)nc1 [Piribedil hydrochloride],0.00502
22,"C[C@](N)(Cc1ccc(O)c(O)c1)C(=O)O [Methyldopa (L,-)]",-0.124
23,C[C@H]1c2cccc(O)c2C(=O)C2=C(O)[C@]3(O)C(=O)C(C(N)=O)=C(O)[C@@H](N(C)C)[C@@H]3[C@@H](O)[C@@H]21 [Doxycycline hydrochloride],-0.849
